According to US20040266882A1 (priority 2001, published 2004):
Some results were stated once for a whole list of compounds, not compound by compound.

How the values were obtained:
C6 cells = conditions: 0.1 μg/ml Doxorubicin or 30 μg/ml Mitomycin C alone, 24 hours
PANC-1 cells = conditions: 0.1 μg/ml Doxorubicin or 30 μg/ml Mitomycin C alone, 24 hours

COc1cccc2c1C(=O)c1c(O)c3c(c(O)c1C2=O)C[C@@](O)(C(=O)CO)C[C@@H]3O[C@H]1C[C@H](N)[C@H](O)[C@H](C)O1 [Doxorubicin]
cell death, treatment with drug alone (C6 cells): no more than 20% | cell death, treatment with drug alone (PANC-1 cells): no more than 20%
